Among the data in PubChem BioAssay AID853 (Columbia University Molecular Screening Center, 2007) are fraction fluorescence in grains values, retold here.

The list shows a part of the results. Some tests of the compounds listed are not included; inactive here does not mean inactive elsewhere.

The assay can be described thus: clearance of mutant huntingtin inclusions, primary screen, imaging, HeLa Exon1htt(103Q)mCFP, confocal imaging (AID 853).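 Also: cells exposed to compound for three days before fixation.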 Particulars: aggregate imaging, measured here: aggregate grain fluorescence fraction, at 1.5 µM, stronger effect = lower value.
`CN(C)c1cccc(C(=O)NCC2(N(C)C)CCCCC2)c1` came in with a fraction fluorescence in grains of 34.6.
